Seven substances from paper PMC9381590 can be followed below.

Chains of the proteins cited; added tags and fusions are not shown. Lines headed by an entry give the natural chain unless they say otherwise; changes in a name come on top. Residues count along the entry.
UniProt P14618: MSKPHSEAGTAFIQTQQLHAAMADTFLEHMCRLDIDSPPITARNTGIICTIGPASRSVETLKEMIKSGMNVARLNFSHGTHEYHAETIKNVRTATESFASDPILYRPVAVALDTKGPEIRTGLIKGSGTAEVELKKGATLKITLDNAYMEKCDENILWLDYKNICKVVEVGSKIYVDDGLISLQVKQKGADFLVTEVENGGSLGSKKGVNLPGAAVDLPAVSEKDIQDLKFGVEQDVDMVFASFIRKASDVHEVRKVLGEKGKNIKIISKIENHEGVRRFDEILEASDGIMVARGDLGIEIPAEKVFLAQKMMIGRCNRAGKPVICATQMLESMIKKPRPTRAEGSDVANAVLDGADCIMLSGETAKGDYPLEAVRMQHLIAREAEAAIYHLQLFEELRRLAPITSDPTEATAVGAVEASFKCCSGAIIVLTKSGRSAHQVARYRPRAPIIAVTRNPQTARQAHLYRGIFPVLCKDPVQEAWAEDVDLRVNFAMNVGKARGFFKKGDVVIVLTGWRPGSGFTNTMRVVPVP
purified recombinant PKM2 1-219 aa protein: residues 1-219 of P14618
UniProt Q13838: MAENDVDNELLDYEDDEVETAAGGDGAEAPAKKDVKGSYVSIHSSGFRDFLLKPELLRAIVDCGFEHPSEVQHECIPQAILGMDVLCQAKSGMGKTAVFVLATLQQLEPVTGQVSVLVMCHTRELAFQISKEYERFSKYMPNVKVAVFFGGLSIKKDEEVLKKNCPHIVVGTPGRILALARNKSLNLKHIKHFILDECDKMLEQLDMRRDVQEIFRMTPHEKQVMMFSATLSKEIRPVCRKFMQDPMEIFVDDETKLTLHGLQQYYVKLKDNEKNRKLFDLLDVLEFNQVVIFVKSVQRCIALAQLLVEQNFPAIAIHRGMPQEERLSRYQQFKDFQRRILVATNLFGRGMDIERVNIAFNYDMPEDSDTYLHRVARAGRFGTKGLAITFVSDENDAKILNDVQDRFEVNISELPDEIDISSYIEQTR
UniProt P52294: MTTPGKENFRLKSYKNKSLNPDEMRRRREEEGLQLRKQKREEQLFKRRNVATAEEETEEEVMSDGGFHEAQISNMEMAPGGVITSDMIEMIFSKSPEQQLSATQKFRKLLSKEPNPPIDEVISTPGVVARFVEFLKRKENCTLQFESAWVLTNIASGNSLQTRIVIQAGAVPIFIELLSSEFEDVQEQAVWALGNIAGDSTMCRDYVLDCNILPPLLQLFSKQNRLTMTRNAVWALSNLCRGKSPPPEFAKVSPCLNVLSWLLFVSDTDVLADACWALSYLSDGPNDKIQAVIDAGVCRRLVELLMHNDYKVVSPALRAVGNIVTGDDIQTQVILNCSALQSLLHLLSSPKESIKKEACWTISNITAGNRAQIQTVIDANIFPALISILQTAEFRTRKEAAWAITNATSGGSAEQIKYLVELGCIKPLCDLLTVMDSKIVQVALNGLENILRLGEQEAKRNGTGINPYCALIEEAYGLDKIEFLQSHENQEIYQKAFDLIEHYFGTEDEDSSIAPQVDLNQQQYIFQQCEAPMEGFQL

Results are given in words; binding and its absence hold for the method and conditions named. Binding can be weak; no strength is given. For some assays here: Binding seen in cells or lysates may run through a third protein.

In one assay the target is His-fused PKM2 (UniProt P14618). As to the kind of experiment: pull-down; Ni-NTA pull-down: bacterially expressed His-tagged PKM2 on Ni-NTA agarose beads with wild type or mutant GST-tagged DDX39B, overnight at 4 °C, washed with 0.1% NP-40 buffer, immunoblot; both purified. (In western blotting, separated proteins are transferred to a membrane and probed.)
Assay [1] addresses FLAG-DDX39B (human) (UniProt Q13838). As to the kind of experiment: co-IP; tandem affinity purification with anti-Flag and anti-HA magnetic beads from lysates of CRC cells cotransfected with Flag-DDX39B and HA-PKM2.
The target in a further assay is GST-fused DDX39B (human) (UniProt Q13838). As to the kind of experiment: pull-down; GST pull-down: bacterially expressed GST-fused DDX39B on glutathione Sepharose beads with His-fused PKM2, overnight at 4 °C, washed with 0.1% NP-40 buffer, immunoblot; both purified.
The target in the next assay is VN173-DDX39B (human) (UniProt Q13838). As to the kind of experiment: split reporter; BiFC with Venus fragments VN173 and VC155 in HCT116 and SW620 cells.
The target in assay [2] is FLAG-DDX39B (human) (UniProt Q13838). As to the kind of experiment: co-IP; CRC cells stably expressing mock, DDX39B^WT or DDX39B^R319A; interaction with PKM2.
In assay [3] the target is purified recombinant PKM2 (UniProt P14618). As to the kind of experiment: in vitro competitive binding analysis; purified proteins; increasing amounts of DDX39B added to PKM2 (WT or 1-219 aa) and STUB1; western blotting; both purified.
For assay [4], the target named is purified recombinant PKM2 1-219 aa protein (UniProt P14618). The description is as above.

Turning to GST-fused DDX39B (from UniProt Q13838), the binding result in the assay with His-fused PKM2 is recorded as “binds”.

In the case of “HA-PKM2 (full-length) (from UniProt P14618 1-531)”, the binding entry with FLAG-DDX39B (human) [1] is on record as “binds”.

On to “His-fused PKM2 (from UniProt P14618 1-531)”, for which the binding result in the assay with GST-fused DDX39B (human) was “binds”.

Turning to VC155-PKM2 (from UniProt P14618 1-531), the binding entry in the assay with VN173-DDX39B (human) was “binds”.

In the case of “endogenous PKM2 (from UniProt P14618 1-531)”, the binding result in the assay with FLAG-DDX39B (human) [2] is recorded as “binds”.

For the substance “importin α5 (in CRC cells) (from UniProt P52294 1-538)”, in the assay with FLAG-DDX39B (human) [1], the binding entry is “binds”.

With “purified DDX39B protein (from UniProt Q13838)”, the binding entry in assay [3] and in assay [4] was “binds” throughout.
